Reference: patent US20250346657A1 (INTERVET, published 2025)
Changes are numbered by the printed parent chain. No constants are given. Whether binding was seen depends on the method and setting. Some binding calls cover weakened binding; strength is not graded here.

B1: fFulVH2-fIgG1am4/fFulVL1-fCk (antibody)
heavy: EVQLVESGGDLVQPGGSLRLTCVASGFTFSSYSMNWVRQAPGKGLQWVSYISRSSHTIFYADSVKGRFTISRDNAKNTLYLQMDSLKDEDTATYYCARVYSSGWHVSDYFDYWGQGILVTVSSASTTAPSVFPLAPSCGTTSGATVALACLVLGYFPEPVTVSWNSGALTSGVHTFPAVLQASGLYSLSSMVTVPSSRWLSDTFTCNVAHPPSNTKVDKTVRKTDHPPGPKPCDCPKCPPPEMLGGPSIFIFPPKPKDTLSISRTPEVTCLVVALGPDDSDVQITWFVDNTQVYTAKTSPREEQFASTYRVVSVLPILHQDWLKGKEFKCKVNSKSLPSPIERTISKAKGQPHEPQVYVLPPAQEELSRNKVSVTCLIKSFHPPDIAVEWEITGQPEPENNYRTTPPQLDSDGTYFVYSKLSVDRSHWQRGNTYTCSVSHEALHSHHTQKSLTQSPGK
light: EIQLTQSPSSLSASPGDRVTITCRASQGISSALAWYQQKPGKVPKLLIYDASSLESGVPSRFSGSGSGTDFTLTISSLEPEDAATYYCQQFNSYPLTFGQGTKLEIKRSDAQPSVFLFQPSLDELHTGSASIVCILNDFYPKEVNVKWKVDGVVQNKGIQESTTEQNSKDSTYSLSSTLTMSSTEYQSHEKFSCEVTHKSLASTLVKSFNRSECQRE
B2: fFulVH2-fIgG1am4/fFulVL2-fCk (antibody)
heavy: B1 heavy
light: AITLTQSPGSLAGSPGQQVTITCRASQGISSALAWYQQKPGQHPKLLIYDASSLESGVPDRFSGSGSGTDFTLTISNLQAEDVASYYCQQFNSYPLTFGQGTKLEIKRSDAQPSVFLFQPSLDELHTGSASIVCILNDFYPKEVNVKWKVDGVVQNKGIQESTTEQNSKDSTYSLSSTLTMSSTEYQSHEKFSCEVTHKSLASTLVKSFNRSECQRE
B3: fFulVH4-fIgG1am4/fFulVL1-fCk (antibody)
heavy: B1 heavy with G8E
light: B1 light
B4: fFulVH4-fIgG1am4/fFulVL2-fCk (antibody)
heavy: B1 heavy with G8E
light: B2 light

target: feline NGF (feline); assay: ELISA, feline NGF

Row | binding | Binder
1 | binds | B1
2 | binds | B2
3 | binds | B3
4 | binds | B4
